No constants are given. Whether binding was seen depends on the method and setting. In cells and extracts the contact can be indirect. Some results given as binding are weak or reduced against the parent protein; the word gives no strength. For some assays here: Sequences can lack the tags named with a protein.

Chains of the proteins cited; added tags and fusions are not shown.
UniProt Q14781: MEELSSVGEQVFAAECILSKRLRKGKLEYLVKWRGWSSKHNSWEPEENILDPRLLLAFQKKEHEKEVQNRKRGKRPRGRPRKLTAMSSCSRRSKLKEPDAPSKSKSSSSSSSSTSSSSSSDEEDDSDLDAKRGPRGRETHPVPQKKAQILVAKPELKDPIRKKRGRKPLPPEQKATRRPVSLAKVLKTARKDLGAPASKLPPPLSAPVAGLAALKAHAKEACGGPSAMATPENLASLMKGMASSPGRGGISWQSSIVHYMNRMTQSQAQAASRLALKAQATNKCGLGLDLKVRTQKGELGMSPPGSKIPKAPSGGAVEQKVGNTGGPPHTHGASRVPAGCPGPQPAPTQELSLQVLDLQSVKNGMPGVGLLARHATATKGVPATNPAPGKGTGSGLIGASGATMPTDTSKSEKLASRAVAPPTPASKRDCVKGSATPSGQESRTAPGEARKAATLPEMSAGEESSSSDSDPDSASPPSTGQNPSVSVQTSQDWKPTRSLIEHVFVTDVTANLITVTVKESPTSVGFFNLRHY
UniProt P49841: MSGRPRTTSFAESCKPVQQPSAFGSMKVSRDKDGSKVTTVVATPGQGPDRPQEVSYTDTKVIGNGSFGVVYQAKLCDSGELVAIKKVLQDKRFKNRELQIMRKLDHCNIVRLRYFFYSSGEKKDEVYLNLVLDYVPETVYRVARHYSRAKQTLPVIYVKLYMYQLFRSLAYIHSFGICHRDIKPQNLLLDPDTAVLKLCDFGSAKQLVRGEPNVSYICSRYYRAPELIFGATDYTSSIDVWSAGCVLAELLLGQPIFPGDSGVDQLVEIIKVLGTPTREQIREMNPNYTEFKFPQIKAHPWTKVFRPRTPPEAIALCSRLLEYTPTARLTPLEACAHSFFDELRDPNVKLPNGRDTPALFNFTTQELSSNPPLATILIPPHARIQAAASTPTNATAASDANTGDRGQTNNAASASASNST

Data on three substances can be found in PMC10687032, “Phosphorylation of USP27X by GSK3β maintains the stability and oncogenic functions of CBX2” (Cell Death & Disease, 2023).

Test [1] deals with T1, HA-tagged full-length (FL) USP27X (human) (UniProt A6NNY8).
T1 sequence: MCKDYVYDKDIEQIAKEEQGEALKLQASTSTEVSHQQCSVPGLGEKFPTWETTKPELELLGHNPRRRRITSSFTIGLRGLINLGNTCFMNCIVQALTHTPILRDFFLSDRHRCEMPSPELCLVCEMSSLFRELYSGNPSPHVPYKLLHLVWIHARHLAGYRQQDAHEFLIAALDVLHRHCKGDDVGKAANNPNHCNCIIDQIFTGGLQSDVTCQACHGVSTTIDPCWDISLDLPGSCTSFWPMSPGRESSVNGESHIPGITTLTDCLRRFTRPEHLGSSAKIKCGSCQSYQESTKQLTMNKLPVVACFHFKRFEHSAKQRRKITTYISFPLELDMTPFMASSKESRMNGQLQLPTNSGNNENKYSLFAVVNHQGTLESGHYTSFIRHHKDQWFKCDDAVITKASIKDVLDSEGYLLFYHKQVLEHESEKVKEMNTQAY
Briefly: co-IP; HEK-293T cells co-transfected with HA-USP27X and Myc-CBX2 (full length, deletion mutants or S135A); IP with anti-Myc or anti-HA magnetic beads, IB with HA and Myc antibodies; lysis buffer 50 mM Tris-Cl pH 7.4, 150 mM NaCl, 1% Triton X-100, 1 mM DTT; in Fig. 5I with Flag-GSK3β co-transfected, IP anti-Myc, IB anti-HA.

In test [2] the target is T1, HA-tagged full-length (FL) USP27X (human). Briefly: proximity ligation; in situ PLA between exogenous USP27X and CBX2 in HEK-293T cells.
For test [3], the target named is T2, endogenous USP27X (human (endogenous in MCF7, MDA-MB-231, BT-549)) (UniProt A6NNY8).
T2 sequence: T1 sequence
Briefly: proximity ligation; in situ PLA (Duolink, Rabbit PLUS and Mouse MINUS) between endogenous USP27X and CBX2 in fixed cells.

The target in test [4] is T2, endogenous USP27X (human (endogenous in MCF7, MDA-MB-231, BT-549)). Briefly: co-IP; endogenous proteins in lysates of MCF7, MDA-MB-231 and BT-549; IP with antibodies against USP27X, CBX2 or GSK3β, IgG as isotype control; lysis buffer 50 mM Tris-Cl pH 7.4, 150 mM NaCl, 1% Triton X-100, 1 mM DTT; in Fig. 5F-H after GSK3β overexpression or GSK3β siRNA for 36 h and 20 µM MG132 for 6 h.

“Myc-tagged full-length (FL) CBX2 (from UniProt Q14781 1-532)”: the binding result in test [1] and in test [2] was “binds” in each case. Regarding “endogenous CBX2 (from UniProt Q14781 1-532)”, the binding result in test [3] and in test [4] was “binds” throughout. For the substance “endogenous GSK3β (from UniProt P49841 1-420) (enzyme)”, the binding result in test [4] is reported as “binds”.
